The list shows a part of the results.
Tests used:
Assay in all cases: glycan array binding signal (z-score within array); higher = stronger binding
Details in all cases: glycan notation: IUPAC condensed, linker removed
[1] = biological target: Gal3S(b1-3)[Fuc(a1-4)]GlcNAc
Method in brief: (§1)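 The binding signal is a Z-score computed within each array and averaged over linkers. Arrays of the same protein sequence at different concentrations or buffers were also averaged together. Data originate from 3228 arrays in the Consortium for Functional Glycomics database, kept only where the protein sequence was available.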

[2] = biological target: Gal3S(b1-4)Glc
Method in brief: as §1

[3] = biological target: Gal3S(b1-4)Glc6S
Method in brief: as §1

[4] = biological target: Gal3S(b1-4)GlcNAc
Method in brief: as §1

[5] = biological target: Gal3S(b1-4)[Fuc(a1-3)]Glc6S
Method in brief: as §1

[6] = biological target: Gal3S(b1-4)[Fuc(a1-3)]GlcNAc
Method in brief: as §1

[7] = biological target: Gal3S(b1-4)[Fuc(a1-3)]GlcNAc6S
Method in brief: as §1

[8] = biological target: Gal3S4S(b1-4)GlcNAc
Method in brief: as §1

[9] = biological target: Gal3S6S(b1-4)GlcNAc
Method in brief: as §1

[10] = biological target: Gal3S6S(b1-4)GlcNAc6S
Method in brief: as §1

[11] = biological target: Gal4S(b1-4)GlcNAc
Method in brief: as §1

[12] = biological target: Gal4S6S(b1-4)GlcNAc
Method in brief: as §1

[13] = biological target: Gal6P(b1-4)GlcNAc
Method in brief: as §1

[14] = biological target: Gal6S(b1-3)GlcNAc
Method in brief: as §1

[15] = biological target: Gal6S(b1-3)GlcNAc6S
Method in brief: as §1

[16] = biological target: Gal6S(b1-4)Glc
Method in brief: as §1

[17] = biological target: Gal6S(b1-4)Glc6S
Method in brief: as §1

[18] = biological target: Gal6S(b1-4)GlcNAc
Method in brief: as §1

[19] = biological target: Gal6S(b1-4)GlcNAc6S
Method in brief: as §1

[20] = biological target: GalNAc(a1-3)Gal
Method in brief: as §1

[21] = biological target: GalNAc(a1-3)GalNAc
Method in brief: as §1

[22] = biological target: GalNAc(a1-3)GalNAc(b1-3)Gal(a1-4)Gal(b1-4)Glc
Method in brief: as §1

[23] = biological target: GalNAc(a1-3)GalNAc(b1-3)Gal(a1-4)Gal(b1-4)GlcNAc
Method in brief: as §1

[24] = biological target: GalNAc(b1-3)Gal
Method in brief: as §1

[25] = biological target: GalNAc(b1-3)Gal(a1-4)Gal(b1-4)GlcNAc
Method in brief: as §1

[26] = biological target: GalNAc(b1-3)Gal(a1-4)Gal(b1-4)GlcNAc(b1-3)Gal(b1-4)Glc
Method in brief: as §1

[27] = biological target: GalNAc(b1-3)Gal(a1-6)Gal(b1-4)Glc
Method in brief: as §1

[28] = biological target: GalNAc(b1-3)GalNAc
Method in brief: as §1

[29] = biological target: GalNAc(b1-3)GlcNAc
Method in brief: as §1

[30] = biological target: GalNAc(b1-4)Gal(b1-4)Glc
Method in brief: as §1

[31] = biological target: GalNAc(b1-4)GlcNAc
Method in brief: as §1

[32] = biological target: GalNAc(b1-4)GlcNAc(b1-2)Man
Method in brief: as §1

[33] = biological target: GalNAc(b1-4)GlcNAc(b1-2)Man(a1-3)[GalNAc(b1-4)GlcNAc(b1-2)Man(a1-6)]Man(b1-4)GlcNAc(b1-4)GlcNAc
Method in brief: as §1

[34] = biological target: GalNAc(b1-4)GlcNAc(b1-3)GalNAc(b1-4)GlcNAc
Method in brief: as §1

[35] = biological target: GalNAc(b1-4)GlcNAc6S
Method in brief: as §1

[36] = biological target: GalNAc(b1-6)GalNAc
Method in brief: as §1

[37] = biological target: GalNAc3S(b1-4)GlcNAc
Method in brief: as §1

[38] = biological target: GalNAc3S(b1-4)GlcNAc3S
Method in brief: as §1

[39] = biological target: GalNAc3S(b1-4)[Fuc(a1-3)]GlcNAc
Method in brief: as §1

[40] = biological target: GalNAc4S6S(b1-4)GlcNAc
Method in brief: as §1

[41] = biological target: GalNAc6S(b1-4)GlcNAc
Method in brief: as §1

[42] = biological target: Glc(a1-4)Glc
Method in brief: as §1

[43] = biological target: Glc(a1-4)Glc(a1-4)Glc(a1-4)Glc
Method in brief: as §1

[44] = biological target: Glc(a1-6)Glc(a1-6)Glc
Method in brief: as §1

[45] = biological target: Glc(a1-6)Glc(a1-6)Glc(a1-6)Glc
Method in brief: as §1

B1: AFL6 (Aspergillus fumigatus), Q4WKJ1 (protein)
chain: MSFHLTAEDIRIEDGHRLVARLRNADGDLQDASIDLNTCLGNDNGHFQWDGVDFSHSAQDVHFAIEGGGQVPVLRAQLANQDGEFQDADVNLSERIENINGEFVFH
glycan array binding signal (z-score) [1]: -0.44
glycan array binding signal (z-score) [2]: -0.364
glycan array binding signal (z-score) [3]: 0.622
glycan array binding signal (z-score) [4]: -0.043
glycan array binding signal (z-score) [5]: 0.32
glycan array binding signal (z-score) [6]: 0.11
glycan array binding signal (z-score) [7]: -0.4
glycan array binding signal (z-score) [8]: 0.473
glycan array binding signal (z-score) [9]: 0.192
glycan array binding signal (z-score) [10]: -0.064
glycan array binding signal (z-score) [11]: -0.569
glycan array binding signal (z-score) [12]: 0.69
glycan array binding signal (z-score) [13]: -0.655
glycan array binding signal (z-score) [14]: -0.443
glycan array binding signal (z-score) [15]: -0.708
glycan array binding signal (z-score) [16]: -0.525
glycan array binding signal (z-score) [17]: -0.382
glycan array binding signal (z-score) [18]: -0.617
glycan array binding signal (z-score) [19]: -0.589
glycan array binding signal (z-score) [20]: -0.189
glycan array binding signal (z-score) [21]: -0.209
glycan array binding signal (z-score) [22]: -1.16
glycan array binding signal (z-score) [23]: 0.088
glycan array binding signal (z-score) [24]: 0.391
glycan array binding signal (z-score) [25]: -0.5
glycan array binding signal (z-score) [26]: -0.055
glycan array binding signal (z-score) [27]: -0.139
glycan array binding signal (z-score) [28]: -0.414
glycan array binding signal (z-score) [29]: 0.165
glycan array binding signal (z-score) [30]: 0.175
glycan array binding signal (z-score) [31]: -0.342
glycan array binding signal (z-score) [32]: -0.216
glycan array binding signal (z-score) [33]: 0.101
glycan array binding signal (z-score) [34]: -0.273
glycan array binding signal (z-score) [35]: -0.206
glycan array binding signal (z-score) [36]: -0.904
glycan array binding signal (z-score) [37]: 0.248
glycan array binding signal (z-score) [38]: -0.422
glycan array binding signal (z-score) [39]: 0.033
glycan array binding signal (z-score) [40]: -0.615
glycan array binding signal (z-score) [41]: -0.605
glycan array binding signal (z-score) [42]: -0.518
glycan array binding signal (z-score) [43]: -0.284
glycan array binding signal (z-score) [44]: -0.6
glycan array binding signal (z-score) [45]: -0.415

From the supplement of paper PMC8728848
